Source: publication PMC9064840

Sequences of proteins named here, by UniProt entry; tags and fusion partners are left off. Residues count along the entry.
UniProt Q01973, residues 30-937: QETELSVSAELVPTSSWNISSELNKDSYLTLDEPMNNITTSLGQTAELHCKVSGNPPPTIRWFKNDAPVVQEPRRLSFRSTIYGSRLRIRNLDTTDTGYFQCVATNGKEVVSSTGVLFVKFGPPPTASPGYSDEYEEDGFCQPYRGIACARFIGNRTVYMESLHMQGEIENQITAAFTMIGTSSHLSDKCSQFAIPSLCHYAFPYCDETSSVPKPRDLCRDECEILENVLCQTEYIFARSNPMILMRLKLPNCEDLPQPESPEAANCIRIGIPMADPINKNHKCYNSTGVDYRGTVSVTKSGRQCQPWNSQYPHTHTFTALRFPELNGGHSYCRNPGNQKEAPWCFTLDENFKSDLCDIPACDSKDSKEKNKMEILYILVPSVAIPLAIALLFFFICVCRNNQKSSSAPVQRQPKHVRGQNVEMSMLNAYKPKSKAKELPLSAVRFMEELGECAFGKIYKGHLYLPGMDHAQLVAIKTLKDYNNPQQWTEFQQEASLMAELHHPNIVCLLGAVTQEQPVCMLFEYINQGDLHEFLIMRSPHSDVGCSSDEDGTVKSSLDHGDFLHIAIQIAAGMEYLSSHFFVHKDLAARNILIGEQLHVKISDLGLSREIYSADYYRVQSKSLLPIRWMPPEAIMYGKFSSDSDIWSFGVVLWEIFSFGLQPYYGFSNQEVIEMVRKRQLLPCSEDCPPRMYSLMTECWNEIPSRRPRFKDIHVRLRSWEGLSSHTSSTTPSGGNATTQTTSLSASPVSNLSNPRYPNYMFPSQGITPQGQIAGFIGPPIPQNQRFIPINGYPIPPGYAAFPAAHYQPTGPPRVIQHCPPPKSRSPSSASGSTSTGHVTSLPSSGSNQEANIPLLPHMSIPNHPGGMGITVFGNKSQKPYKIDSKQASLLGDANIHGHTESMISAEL
UniProt O00165: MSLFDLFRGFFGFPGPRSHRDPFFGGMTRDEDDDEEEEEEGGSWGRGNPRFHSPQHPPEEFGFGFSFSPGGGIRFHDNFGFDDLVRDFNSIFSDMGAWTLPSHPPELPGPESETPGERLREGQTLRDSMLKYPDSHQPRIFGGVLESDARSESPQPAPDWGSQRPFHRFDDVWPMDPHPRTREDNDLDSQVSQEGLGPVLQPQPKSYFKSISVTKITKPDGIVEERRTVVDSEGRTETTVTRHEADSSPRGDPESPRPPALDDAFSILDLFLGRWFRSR
UniProt P62993: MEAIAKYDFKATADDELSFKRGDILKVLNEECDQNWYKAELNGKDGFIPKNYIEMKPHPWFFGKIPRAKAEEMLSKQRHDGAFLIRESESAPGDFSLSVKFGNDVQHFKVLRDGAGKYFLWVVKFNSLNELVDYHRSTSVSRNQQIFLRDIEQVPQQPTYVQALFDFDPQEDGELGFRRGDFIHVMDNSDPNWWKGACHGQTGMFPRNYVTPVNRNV
UniProt Q9UM54: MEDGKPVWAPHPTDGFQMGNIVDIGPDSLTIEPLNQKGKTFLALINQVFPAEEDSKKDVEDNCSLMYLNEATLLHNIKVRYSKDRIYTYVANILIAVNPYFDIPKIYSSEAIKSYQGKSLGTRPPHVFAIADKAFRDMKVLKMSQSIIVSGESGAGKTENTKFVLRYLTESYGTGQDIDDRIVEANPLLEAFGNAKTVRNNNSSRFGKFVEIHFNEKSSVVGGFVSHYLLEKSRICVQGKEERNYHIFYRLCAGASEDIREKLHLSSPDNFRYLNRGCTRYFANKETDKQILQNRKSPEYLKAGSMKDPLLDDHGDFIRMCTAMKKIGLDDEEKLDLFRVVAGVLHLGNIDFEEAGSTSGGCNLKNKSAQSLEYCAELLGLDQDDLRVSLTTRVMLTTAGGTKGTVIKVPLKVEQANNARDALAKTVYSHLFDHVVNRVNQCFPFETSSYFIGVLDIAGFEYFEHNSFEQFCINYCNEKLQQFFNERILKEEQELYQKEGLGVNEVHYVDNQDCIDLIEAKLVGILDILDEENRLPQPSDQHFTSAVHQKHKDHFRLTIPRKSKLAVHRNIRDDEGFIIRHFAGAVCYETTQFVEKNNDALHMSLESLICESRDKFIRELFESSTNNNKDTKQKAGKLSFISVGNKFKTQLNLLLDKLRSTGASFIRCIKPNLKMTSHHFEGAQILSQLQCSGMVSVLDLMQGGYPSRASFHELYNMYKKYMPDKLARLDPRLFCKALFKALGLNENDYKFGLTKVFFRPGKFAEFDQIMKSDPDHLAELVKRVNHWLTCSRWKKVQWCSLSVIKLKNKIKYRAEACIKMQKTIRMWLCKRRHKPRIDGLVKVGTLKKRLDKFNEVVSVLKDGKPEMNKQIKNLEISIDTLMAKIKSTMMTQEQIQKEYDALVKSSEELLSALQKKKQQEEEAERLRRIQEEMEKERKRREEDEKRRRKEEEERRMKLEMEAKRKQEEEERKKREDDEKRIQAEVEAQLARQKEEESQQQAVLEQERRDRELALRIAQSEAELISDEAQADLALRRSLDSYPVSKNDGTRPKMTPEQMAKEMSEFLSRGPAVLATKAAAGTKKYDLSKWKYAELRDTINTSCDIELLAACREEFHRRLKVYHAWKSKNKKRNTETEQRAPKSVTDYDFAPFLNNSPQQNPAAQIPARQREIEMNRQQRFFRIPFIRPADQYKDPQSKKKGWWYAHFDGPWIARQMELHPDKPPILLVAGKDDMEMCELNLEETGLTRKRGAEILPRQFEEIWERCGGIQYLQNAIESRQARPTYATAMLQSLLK
UniProt P27986: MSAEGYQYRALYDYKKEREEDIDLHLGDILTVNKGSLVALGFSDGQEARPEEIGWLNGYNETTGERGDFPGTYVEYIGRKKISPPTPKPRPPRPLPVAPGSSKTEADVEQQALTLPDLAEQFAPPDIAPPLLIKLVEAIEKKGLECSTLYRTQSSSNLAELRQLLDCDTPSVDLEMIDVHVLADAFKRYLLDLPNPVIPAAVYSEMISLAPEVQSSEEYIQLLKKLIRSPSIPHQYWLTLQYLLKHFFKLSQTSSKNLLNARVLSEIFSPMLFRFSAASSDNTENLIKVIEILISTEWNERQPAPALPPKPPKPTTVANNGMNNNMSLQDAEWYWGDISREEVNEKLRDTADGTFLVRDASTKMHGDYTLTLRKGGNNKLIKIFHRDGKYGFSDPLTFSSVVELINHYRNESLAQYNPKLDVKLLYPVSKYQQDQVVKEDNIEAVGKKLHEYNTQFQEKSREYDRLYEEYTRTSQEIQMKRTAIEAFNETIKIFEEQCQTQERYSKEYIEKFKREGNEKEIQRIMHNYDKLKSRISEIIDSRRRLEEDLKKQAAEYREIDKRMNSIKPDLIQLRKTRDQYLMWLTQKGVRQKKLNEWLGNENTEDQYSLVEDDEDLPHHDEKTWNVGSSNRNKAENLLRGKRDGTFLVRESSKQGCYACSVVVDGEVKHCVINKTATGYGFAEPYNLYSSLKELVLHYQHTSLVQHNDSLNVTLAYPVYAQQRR
UniProt P35222: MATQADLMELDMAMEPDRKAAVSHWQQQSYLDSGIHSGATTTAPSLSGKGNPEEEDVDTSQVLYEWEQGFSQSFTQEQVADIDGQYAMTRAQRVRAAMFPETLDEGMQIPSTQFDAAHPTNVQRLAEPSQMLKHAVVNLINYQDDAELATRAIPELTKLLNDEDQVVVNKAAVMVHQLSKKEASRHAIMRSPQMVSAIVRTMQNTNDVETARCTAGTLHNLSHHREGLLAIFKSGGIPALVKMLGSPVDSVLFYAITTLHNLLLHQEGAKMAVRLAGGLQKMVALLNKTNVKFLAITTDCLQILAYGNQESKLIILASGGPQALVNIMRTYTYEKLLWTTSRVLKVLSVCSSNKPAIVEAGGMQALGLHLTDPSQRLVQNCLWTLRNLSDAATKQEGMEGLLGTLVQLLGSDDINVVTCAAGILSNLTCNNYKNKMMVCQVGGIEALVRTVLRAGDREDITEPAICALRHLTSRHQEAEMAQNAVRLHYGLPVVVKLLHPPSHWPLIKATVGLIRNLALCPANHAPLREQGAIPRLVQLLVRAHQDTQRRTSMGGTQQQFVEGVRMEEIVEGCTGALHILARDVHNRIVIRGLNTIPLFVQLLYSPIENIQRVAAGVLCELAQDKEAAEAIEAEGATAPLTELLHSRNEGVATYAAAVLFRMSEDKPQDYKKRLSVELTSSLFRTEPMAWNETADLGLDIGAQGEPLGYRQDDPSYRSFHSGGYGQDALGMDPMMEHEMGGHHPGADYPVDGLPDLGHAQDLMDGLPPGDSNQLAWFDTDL
UniProt O00459: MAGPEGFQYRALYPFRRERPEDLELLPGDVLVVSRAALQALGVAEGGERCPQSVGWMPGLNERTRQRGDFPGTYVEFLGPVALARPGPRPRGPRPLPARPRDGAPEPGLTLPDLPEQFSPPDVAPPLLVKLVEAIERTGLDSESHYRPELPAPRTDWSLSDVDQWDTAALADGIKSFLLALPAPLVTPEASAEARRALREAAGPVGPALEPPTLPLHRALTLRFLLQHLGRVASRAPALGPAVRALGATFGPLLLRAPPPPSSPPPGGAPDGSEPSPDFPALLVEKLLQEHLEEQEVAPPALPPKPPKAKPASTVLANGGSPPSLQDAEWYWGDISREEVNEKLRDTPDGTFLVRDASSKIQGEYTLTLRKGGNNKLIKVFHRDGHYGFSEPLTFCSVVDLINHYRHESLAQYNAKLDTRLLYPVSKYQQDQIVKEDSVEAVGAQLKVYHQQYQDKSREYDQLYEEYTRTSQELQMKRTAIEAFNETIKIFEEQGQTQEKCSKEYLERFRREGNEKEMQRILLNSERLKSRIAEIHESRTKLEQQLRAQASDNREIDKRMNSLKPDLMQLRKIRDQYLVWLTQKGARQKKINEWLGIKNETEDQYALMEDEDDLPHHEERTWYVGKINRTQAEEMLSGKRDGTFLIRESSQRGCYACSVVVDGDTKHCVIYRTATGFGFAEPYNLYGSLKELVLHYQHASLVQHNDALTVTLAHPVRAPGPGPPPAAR
UniProt O14641: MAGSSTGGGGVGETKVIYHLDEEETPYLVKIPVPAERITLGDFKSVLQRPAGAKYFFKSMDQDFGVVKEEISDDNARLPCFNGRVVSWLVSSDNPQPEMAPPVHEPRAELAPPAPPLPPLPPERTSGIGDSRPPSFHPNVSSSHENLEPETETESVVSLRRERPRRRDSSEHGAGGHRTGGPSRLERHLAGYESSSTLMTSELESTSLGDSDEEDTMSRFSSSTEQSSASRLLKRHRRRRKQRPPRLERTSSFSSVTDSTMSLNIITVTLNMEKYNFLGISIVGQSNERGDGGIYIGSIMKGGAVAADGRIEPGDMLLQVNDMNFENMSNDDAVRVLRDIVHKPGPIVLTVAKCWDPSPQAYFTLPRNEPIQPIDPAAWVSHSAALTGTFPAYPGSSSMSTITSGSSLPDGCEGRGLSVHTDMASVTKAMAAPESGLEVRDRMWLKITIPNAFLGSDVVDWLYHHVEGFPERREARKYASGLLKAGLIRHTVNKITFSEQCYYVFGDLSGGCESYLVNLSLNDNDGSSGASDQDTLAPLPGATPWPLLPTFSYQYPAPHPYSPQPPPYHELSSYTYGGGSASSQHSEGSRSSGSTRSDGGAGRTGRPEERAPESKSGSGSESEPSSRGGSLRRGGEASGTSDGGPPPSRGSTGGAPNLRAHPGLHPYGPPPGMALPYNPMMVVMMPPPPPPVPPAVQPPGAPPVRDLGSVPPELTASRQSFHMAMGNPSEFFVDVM
UniProt Q9NYB9: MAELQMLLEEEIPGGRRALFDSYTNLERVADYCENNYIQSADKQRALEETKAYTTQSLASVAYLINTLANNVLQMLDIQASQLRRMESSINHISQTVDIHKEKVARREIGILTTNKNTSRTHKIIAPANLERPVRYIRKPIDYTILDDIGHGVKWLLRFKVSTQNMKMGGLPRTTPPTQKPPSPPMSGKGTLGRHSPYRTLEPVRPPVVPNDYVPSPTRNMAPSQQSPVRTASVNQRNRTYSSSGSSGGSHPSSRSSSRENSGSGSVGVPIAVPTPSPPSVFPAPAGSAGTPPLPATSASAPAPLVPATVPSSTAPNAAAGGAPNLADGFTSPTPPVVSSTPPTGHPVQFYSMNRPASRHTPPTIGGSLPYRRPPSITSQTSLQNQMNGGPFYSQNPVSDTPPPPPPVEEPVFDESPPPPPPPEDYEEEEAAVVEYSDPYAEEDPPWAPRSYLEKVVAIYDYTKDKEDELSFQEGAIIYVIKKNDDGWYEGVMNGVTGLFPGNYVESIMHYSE

What was measured:
MAC-tagged ROR1 (human) [1] = target: MAC-tagged ROR1 (human) (UniProt Q01973); experiment: affinity purification with mass spectrometry; MAC-tagged ROR1 as bait, induced with 1 μg/ml tetracycline for 24 h in Flp-In T-REx 293 cells; 100 µM pervanadate for 15 min before harvest; cells given water or 1 µM GZD824 for 1 h; two biological replicates; high-confidence interactors after statistical filtering
MAC-tagged ROR1 (human) [2] = target: MAC-tagged ROR1 (human) (UniProt Q01973); experiment: proximity labelling; BioID: MAC-tagged ROR1 as bait, induced with tetracycline and 50 μM biotin in Flp-In T-REx 293 cells; 100 µM pervanadate for 15 min before harvest; cells given water or 1 µM GZD824 for 1 h; two biological replicates; high-confidence interactors after statistical filtering

Molecule | binding (MAC-tagged ROR1 (human) [1]) | binding (MAC-tagged ROR1 (human) [2])
HCLS1-associated protein X-1 (from UniProt O00165 1-279) | binds | 
GRB2 (from UniProt P62993 1-217) |  | binds
ROR2 (from UniProt Q01974 34-943) (receptor) |  | binds
MYO6 (from UniProt Q9UM54 1-1294) |  | binds
PIK3R1 (from UniProt P27986 1-724) |  | binds
β-catenin (from UniProt P35222 1-781) |  | binds
PIK3R2 (from UniProt O00459 1-728) |  | binds
TAB1 (protein, UniProt Q15750 1-504) MAAQRRSLLQSEQQPSWTDDLPLCHLSGVGSASNRSYSADGKGTESHPPEDSWLKFRSENNCFLYGVFNGYDGNRVTNFVAQRLSAELLLGQLNAEHAEADVRRVLLQAFDVVERSFLESIDDALAEKASLQSQLPEGVPQHQLPPQYQKILERLKTLEREISGGAMAVVAVLLNNKLYVANVGTNRALLCKSTVDGLQVTQLNVDHTTENEDELFRLSQLGLDAGKIKQVGIICGQESTRRIGDYKVKYGYTDIDLLSAAKSKPIIAEPEIHGAQPLDGVTGFLVLMSEGLYKALEAAHGPGQANQEIAAMIDTEFAKQTSLDAVAQAVVDRVKRIHSDTFASGGERARFCPRHEDMTLLVRNFGYPLGEMSQPTPSPAPAAGGRVYPVSVPYSSAQSTSKTSVTLSLVMPSQGQMVNGAHSASTLDEATPTLTNQSPTLTLQSTNTHTQSSSSSSDGGLFRSRPAHSLPPGEDGRVEPYVDFAEFYRLWSVDHGEQSVVTAP |  | binds

The next lines start with the values.

binding (MAC-tagged ROR1 (human) [1]) | binding (MAC-tagged ROR1 (human) [2]) | Molecule
 | binds | DVL2 (from UniProt O14641 1-736)
 | binds | PEAK1 (from UniProt Q9H792 1-1746)
 | binds | ABI2 (from UniProt Q9NYB9 1-513)
 | binds | DVL1 (protein, UniProt O14640 1-695) MAETKIIYHMDEEETPYLVKLPVAPERVTLADFKNVLSNRPVHAYKFFFKSMDQDFGVVKEEIFDDNAKLPCFNGRVVSWLVLAEGAHSDAGSQGTDSHTDLPPPLERTGGIGDSRPPSFHPNVASSRDGMDNETGTESMVSHRRERARRRNREEAARTNGHPRGDRRRDVGLPPDSASTALSSELESSSFVDSDEDGSTSRLSSSTEQSTSSRLIRKHKRRRRKQRLRQADRASSFSSITDSTMSLNIVTVTLNMERHHFLGISIVGQSNDRGDGGIYIGSIMKGGAVAADGRIEPGDMLLQVNDVNFENMSNDDAVRVLREIVSQTGPISLTVAKCWDPTPRSYFTVPRADPVRPIDPAAWLSHTAALTGALPRYGTSPCSSAVTRTSSSSLTSSVPGAPQLEEAPLTVKSDMSAVVRVMQLPDSGLEIRDRMWLKITIANAVIGADVVDWLYTHVEGFKERREARKYASSLLKHGFLRHTVNKITFSEQCYYVFGDLCSNLATLNLNSGSSGTSDQDTLAPLPHPAAPWPLGQGYPYQYPGPPPCFPPAYQDPGFSYGSGSTGSQQSEGSKSSGSTRSSRRAPGREKERRAAGAGGSGSESDHTAPSGVGSSWRERPAGQLSRGSSPRSQASATAPGLPPPHPTTKAYTVVGGPPGGPPVRELAAVPPELTGSRQSFQKAMGNPCEFFVDIM
binds |  | STT3 oligosaccharyl-transferase STT3 Complex Catalytic Subunit B (protein, UniProt Q8TCJ2 1-826) MAEPSAPESKHKSSLNSSPWSGLMALGNSRHGHHGPGAQCAHKAAGGAAPPKPAPAGLSGGLSQPAGWQSLLSFTILFLAWLAGFSSRLFAVIRFESIIHEFDPWFNYRSTHHLASHGFYEFLNWFDERAWYPLGRIVGGTVYPGLMITAGLIHWILNTLNITVHIRDVCVFLAPTFSGLTSISTFLLTRELWNQGAGLLAACFIAIVPGYISRSVAGSFDNEGIAIFALQFTYYLWVKSVKTGSVFWTMCCCLSYFYMVSAWGGYVFIINLIPLHVFVLLLMQRYSKRVYIAYSTFYIVGLILSMQIPFVGFQPIRTSEHMAAAGVFALLQAYAFLQYLRDRLTKQEFQTLFFLGVSLAAGAVFLSVIYLTYTGYIAPWSGRFYSLWDTGYAKIHIPIIASVSEHQPTTWVSFFFDLHILVCTFPAGLWFCIKNINDERVFVALYAISAVYFAGVMVRLMLTLTPVVCMLSAIAFSNVFEHYLGDDMKRENPPVEDSSDEDDKRNQGNLYDKAGKVRKHATEQEKTEEGLGPNIKSIVTMLMLMLLMMFAVHCTWVTSNAYSSPSVVLASYNHDGTRNILDDFREAYFWLRQNTDEHARVMSWWDYGYQIAGMANRTTLVDNNTWNNSHIALVGKAMSSNETAAYKIMRTLDVDYVLVIFGGVIGYSGDDINKFLWMVRIAEGEHPKDIRESDYFTPQGEFRVDKAGSPTLLNCLMYKMSYYRFGEMQLDFRTPPGFDRTRNAEIGNKDIKFKHLEEAFTSEHWLVRIYKVKAPDNRETLDHKPRVTNIFPKQKYLSKKTTKRKRGYIKNKLVFKKGKKISKKTV
 | binds | TAB3 (protein, UniProt Q8N5C8 1-712) MAQSSPQLDIQVLHDLRQRFPEIPEGVVSQCMLQNNNNLEACCRALSQESSKYLYMEYHSPDDNRMNRNRLLHINLGIHSPSSYHPGDGAQLNGGRTLVHSSSDGHIDPQHAAGKQLICLVQEPHSAPAVVAATPNYNPFFMNEQNRSAATPPSQPPQQPSSMQTGMNPSAMQGPSPPPPPPSYMHIPRYSTNPITVTVSQNLPSGQTVPRALQILPQIPSNLYGSPGSIYIRQTSQSSSGRQTPQSTPWQSSPQGPVPHYSQRPLPVYPHQQNYQPSQYSPKQQQIPQSAYHSPPPSQCPSPFSSPQHQVQPSQLGHIFMPPSPSTTPPHPYQQGPPSYQKQGSHSVAYLPYTASSLSKGSMKKIEITVEPSQRPGTAINRSPSPISNQPSPRNQHSLYTATTPPSSSPSRGISSQPKPPFSVNPVYITYTQPTGPSCTPSPSPRVIPNPTTVFKITVGRATTENLLNLVDQEERSAAPEPIQPISVIPGSGGEKGSHKYQRSSSSGSDDYAYTQALLLHQRARMERLAKQLKLEKEELERLKSEVNGMEHDLMQRRLRRVSCTTAIPTPEEMTRLRSMNRQLQINVDCTLKEVDLLQSRGNFDPKAMNNFYDNIEPGPVVPPKPSKKDSSDPCTIERKARRISVTSKVQADIHDTQAAAADEHRTGSTQSPRTQPRDEDYEGAPWNCDSCTFLNHPALNRCEQCEMPRYT
 | binds | VANGL1 (protein, UniProt Q8TAA9 1-524) MDTESTYSGYSYYSSHSKKSHRQGERTRERHKSPRNKDGRGSEKSVTIQPPTGEPLLGNDSTRTEEVQDDNWGETTTAITGTSEHSISQEDIARISKDMEDSVGLDCKRYLGLTVASFLGLLVFLTPIAFILLPPILWRDELEPCGTICEGLFISMAFKLLILLIGTWALFFRKRRADMPRVFVFRALLLVLIFLFVVSYWLFYGVRILDSRDRNYQGIVQYAVSLVDALLFIHYLAIVLLELRQLQPMFTLQVVRSTDGESRFYSLGHLSIQRAALVVLENYYKDFTIYNPNLLTASKFRAAKHMAGLKVYNVDGPSNNATGQSRAMIAAAARRRDSSHNELYYEEAEHERRVKKRKARLVVAVEEAFIHIQRLQAEEQQKAPGEVMDPREAAQAIFPSMARALQKYLRITRQQNYHSMESILQHLAFCITNGMTPKAFLERYLSAGPTLQYDKDRWLSTQWRLVSDEAVTNGLRDGIVFVLKCLDFSLVVNVKKIPFIILSEEFIDPKSHKFVLRLQSETSV
binds |  | MAGT1 (protein, UniProt Q9H0U3 30-335) QRKKEMVLSEKVSQLMEWTNKRPVIRMNGDKFRRLVKAPPRNYSVIVMFTALQLHRQCVVCKQADEEFQILANSWRYSSAFTNRIFFAMVDFDEGSDVFQMLNMNSAPTFINFPAKGKPKRGDTYELQVRGFSAEQIARWIADRTDVNIRVIRPPNYAGPLMLGLLLAVIGGLVYLRRSNMEFLFNKTGWAFAALCFVLAMTSGQMWNHIRGPPYAHKNPHTGHVNYIHGSSQAQFVAETHIVLLFNGGVTLGMVLLCEAATSDMDIGKRKIMCVAGIGLVVLFFSWMLSIFRSKYHGYPYSFLMS
 | binds | TAB2 (protein, UniProt Q9NYJ8 1-693) MAQGSHQIDFQVLHDLRQKFPEVPEVVVSRCMLQNNNNLDACCAVLSQESTRYLYGEGDLNFSDDSGISGLRNHMTSLNLDLQSQNIYHHGREGSRMNGSRTLTHSISDGQLQGGQSNSELFQQEPQTAPAQVPQGFNVFGMSSSSGASNSAPHLGFHLGSKGTSSLSQQTPRFNPIMVTLAPNIQTGRNTPTSLHIHGVPPPVLNSPQGNSIYIRPYITTPGGTTRQTQQHSGWVSQFNPMNPQQVYQPSQPGPWTTCPASNPLSHTSSQQPNQQGHQTSHVYMPISSPTTSQPPTIHSSGSSQSSAHSQYNIQNISTGPRKNQIEIKLEPPQRNNSSKLRSSGPRTSSTSSSVNSQTLNRNQPTVYIAASPPNTDELMSRSQPKVYISANAATGDEQVMRNQPTLFISTNSGASAASRNMSGQVSMGPAFIHHHPPKSRAIGNNSATSPRVVVTQPNTKYTFKITVSPNKPPAVSPGVVSPTFELTNLLNHPDHYVETENIQHLTDPTLAHVDRISETRKLSMGSDDAAYTQALLVHQKARMERLQRELEIQKKKLDKLKSEVNEMENNLTRRRLKRSNSISQIPSLEEMQQLRSCNRQLQIDIDCLTKEIDLFQARGPHFNPSAIHNFYDNIGFVGPVPPKPKDQRSIIKTPKTQDTEDDEGAQWNCTACTFLNHPALIRCEQCEMPRHF
binds |  | DDOST (protein, UniProt P39656 43-456) SGPRTLVLLDNLNVRETHSLFFRSLKDRGFELTFKTADDPSLSLIKYGEFLYDNLIIFSPSVEDFGGNINVETISAFIDGGGSVLVAASSDIGDPLRELGSECGIEFDEEKTAVIDHHNYDISDLGQHTLIVADTENLLKAPTIVGKSSLNPILFRGVGMVADPDNPLVLDILTGSSTSYSFFPDKPITQYPHAVGKNTLLIAGLQARNNARVIFSGSLDFFSDSFFNSAVQKAAPGSQRYSQTGNYELAVALSRWVFKEEGVLRVGPVSHHRVGETAPPNAYTVTDLVEYSIVIQQLSNGKWVPFDGDDIQLEFVRIDPFVRTFLKKKGGKYSVQFKLPDVYGVFQFKVDYNRLGYTHLYSSTQVSVRPLQHTQYERFIPSAYPYYASAFSMMLGLFIFSIVFLHMKEKEKSD
binds |  | RPN1 (protein, UniProt P04843 24-607) ASSEAPPLINEDVKRTVDLSSHLAKVTAEVVLAHLGGGSTSRATSFLLALEPELEARLAHLGVQVKGEDEEENNLEVRETKIKGKSGRFFTVKLPVALDPGAKISVIVETVYTHVLHPYPTQITQSEKQFVVFEGNHYFYSPYPTKTQTMRVKLASRNVESYTKLGNPTRSEDLLDYGPFRDVPAYSQDTFKVHYENNSPFLTITSMTRVIEVSHWGNIAVEENVDLKHTGAVLKGPFSRYDYQRQPDSGISSIRSFKTILPAAAQDVYYRDEIGNVSTSHLLILDDSVEMEIRPRFPLFGGWKTHYIVGYNLPSYEYLYNLGDQYALKMRFVDHVFDEQVIDSLTVKIILPEGAKNIEIDSPYEISRAPDELHYTYLDTFGRPVIVAYKKNLVEQHIQDIVVHYTFNKVLMLQEPLLVVAAFYILFFTVIIYVRLDFSITKDPAAEARMKVACITEQVLTLVNKRIGLYRHFDETVNRYKQSRDISTLNSGKKSLETEHKALTSEIALLQSRLKTEGSDLCDRVSEMQKLDAQVKELVLKSAVEAERLVAGKLKKDTYIENEKLISGKRQELVTKIDHILDAL

Results are given in words; binding and its absence hold for the method and conditions named. In cells and extracts the contact can be indirect. Here binding means that the protein was enriched with, or labelled near, the bait; the list need not be complete.
